For some assays here: A negative result means that nothing was seen under these conditions. Tags and fusion partners may be left off the protein sequences shown.
Columns and labels:
[1] = target: T1, human topoisomerase I (endogenous, HEK293 cells) (Homo sapiens) (UniProt P11387); assay: activity assay; conditions: protein in an extract, folded or branched DNA
T1 sequence (looked up, limits assumed): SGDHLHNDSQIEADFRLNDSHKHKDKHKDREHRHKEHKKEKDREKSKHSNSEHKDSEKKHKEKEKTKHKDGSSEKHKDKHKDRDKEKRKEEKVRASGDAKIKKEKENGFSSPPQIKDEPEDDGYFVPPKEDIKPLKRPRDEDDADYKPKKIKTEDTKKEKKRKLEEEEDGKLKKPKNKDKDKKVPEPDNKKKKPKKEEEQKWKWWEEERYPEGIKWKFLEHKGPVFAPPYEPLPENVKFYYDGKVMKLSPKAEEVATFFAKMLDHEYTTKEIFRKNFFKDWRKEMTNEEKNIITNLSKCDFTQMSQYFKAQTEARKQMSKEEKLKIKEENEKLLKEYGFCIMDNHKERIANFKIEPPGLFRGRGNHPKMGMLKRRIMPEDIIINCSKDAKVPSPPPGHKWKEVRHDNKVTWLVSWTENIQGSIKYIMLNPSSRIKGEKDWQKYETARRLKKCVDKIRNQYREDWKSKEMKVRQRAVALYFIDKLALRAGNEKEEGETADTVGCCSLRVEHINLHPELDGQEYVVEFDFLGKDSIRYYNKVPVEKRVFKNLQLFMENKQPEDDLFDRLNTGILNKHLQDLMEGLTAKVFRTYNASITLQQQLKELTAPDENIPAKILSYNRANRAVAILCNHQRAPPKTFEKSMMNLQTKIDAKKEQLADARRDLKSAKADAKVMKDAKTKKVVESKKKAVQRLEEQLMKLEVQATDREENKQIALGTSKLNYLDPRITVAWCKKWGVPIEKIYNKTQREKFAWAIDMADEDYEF

[2] = target: T2, human topoisomerase I (hTopI) (Homo sapiens) (UniProt P11387); assay: activity assay; conditions: no circularization by REEAD; purified recombinant protein; folded or branched DNA
T2 sequence (looked up, limits assumed): T1 sequence (looked up, limits assumed)

[3] = target: T2, human topoisomerase I (hTopI) (Homo sapiens); assay: enzyme reaction in vitro; conditions: cleaves classical hexadecameric site only, not the additional downstream sites near the 3'-end; same conditions; purified recombinant protein; label: 5'-32P on OL62

Sequence	activity on this sequence [2]	further results
AGAAAAATTTTTAAAAAAACTGTGAAGATCGCTTATTTTTTTAAAAATTTTTCTAAGTCTTTTAGATCCCTCAATGCTGCTGCTGTACTACGATCTAAAAGACTTAGA [S(TopI)]		activity on this sequence ([1]; 3'-amine (as printed in sequence list), circularization by REEAD in HEK293 lysate droplets and HEK293T nuclear extract): active
ATTATAATTTTTTGGAACTTCGAACGACTCAGAATGACTGTGAAGATCGCTTATCCTCAATGCACATGTTTGGCTCCCATTCTGAGTCGTTCGAAGTTCCAAAAAATT [pfTopI(S3)]	not active	
ATTTTTCTAAGTCTTTTAGATCGAACGACTCAGAATGACTGTGAAGATCGCTTATCCTCAATGCACATGTTTGGCTCCCATTCTGAGTCGTTCGATCTAAAAGACTTAGA [pfTopI(S5)]	not active	
CATACATTATACGAAGTTATGAGCGTCTGAGTATGACTGTGAAGATCGCTTATCAGTGAATGCGAGTCCGTCTACTCATACTCAGACGCTCATAACTTCGTATAATGT [pfTopI(S2)]	not active	
GCCTGCAGGTCGACTCTAGAGGATCTAAAAGACTTAGAAAAATTTTTAGGCTCAATCTAGAAGTTCCTACTTAGA / ATTTTTCTAAGTAGGAACTTCTAGATTGAGCCTAAAAATTTTTCTAAGTCTTTTAGATCCTCTAGAGTCGACCTGCAGGC [OL62/OL63]		activity on this sequence [3]: active
TCTAGAAAGTATAGGAACTTCGAACGACTCAGAATGACTGTGAAGATCGCTTATCCTCAATGCACATGTTTGGCTCCCATTCTGAGTCGTTCGAAGTTCCTATACTTT [pfTopI(S1)]	not active	activity on this sequence ([1]; no signal in HEK293T nuclear extract without pfTopI spike-in): not active
TTATAATTTTTTGGAACTTCGAACGACTCAGAATGACTGTGAAGATCGCTTATCCTCAATGCACATGTTTGGCTCCCATTCTGAGTCGTTCGAAGTTCCAAAAAATT [pfTopI(S4)]	not active	
